The other results are listed elsewhere or left out.
compound: Cc1cc(ccc1-c1ccccc1)C(=O)N1CCCN(CC1)C(=O)CCl [compound 10]; assay: probe-labelled cysteine peptide fold change vs DMSO (competition) (log2 fold change); higher = less target engagement (more negative = stronger competition); conditions: 10 µM; THP-1; incubation time: 4 h
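Further: competitive profiling in live THP-1 cells: cysteine peptides tagged with an iodoacetamide desthiobiotin (IA-DTB) probe, intensity after compound treatment relative to DMSO-treated cells.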

Chains of the proteins cited; added tags and fusions are not shown. Lines headed by an entry give the natural chain unless they say otherwise; changes in a name come on top.
UniProt P05455: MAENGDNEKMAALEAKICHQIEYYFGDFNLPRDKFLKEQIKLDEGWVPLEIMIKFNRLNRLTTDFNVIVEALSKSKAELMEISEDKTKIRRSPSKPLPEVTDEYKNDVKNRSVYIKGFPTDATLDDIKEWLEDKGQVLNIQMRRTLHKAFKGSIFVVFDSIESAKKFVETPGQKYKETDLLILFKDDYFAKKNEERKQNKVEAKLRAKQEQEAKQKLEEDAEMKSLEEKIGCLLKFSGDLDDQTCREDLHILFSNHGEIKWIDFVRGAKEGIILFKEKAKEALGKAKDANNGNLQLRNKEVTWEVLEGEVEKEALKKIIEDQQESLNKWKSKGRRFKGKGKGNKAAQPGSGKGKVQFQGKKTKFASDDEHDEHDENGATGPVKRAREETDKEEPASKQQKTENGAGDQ
UniProt O95425, whole entry, looked up: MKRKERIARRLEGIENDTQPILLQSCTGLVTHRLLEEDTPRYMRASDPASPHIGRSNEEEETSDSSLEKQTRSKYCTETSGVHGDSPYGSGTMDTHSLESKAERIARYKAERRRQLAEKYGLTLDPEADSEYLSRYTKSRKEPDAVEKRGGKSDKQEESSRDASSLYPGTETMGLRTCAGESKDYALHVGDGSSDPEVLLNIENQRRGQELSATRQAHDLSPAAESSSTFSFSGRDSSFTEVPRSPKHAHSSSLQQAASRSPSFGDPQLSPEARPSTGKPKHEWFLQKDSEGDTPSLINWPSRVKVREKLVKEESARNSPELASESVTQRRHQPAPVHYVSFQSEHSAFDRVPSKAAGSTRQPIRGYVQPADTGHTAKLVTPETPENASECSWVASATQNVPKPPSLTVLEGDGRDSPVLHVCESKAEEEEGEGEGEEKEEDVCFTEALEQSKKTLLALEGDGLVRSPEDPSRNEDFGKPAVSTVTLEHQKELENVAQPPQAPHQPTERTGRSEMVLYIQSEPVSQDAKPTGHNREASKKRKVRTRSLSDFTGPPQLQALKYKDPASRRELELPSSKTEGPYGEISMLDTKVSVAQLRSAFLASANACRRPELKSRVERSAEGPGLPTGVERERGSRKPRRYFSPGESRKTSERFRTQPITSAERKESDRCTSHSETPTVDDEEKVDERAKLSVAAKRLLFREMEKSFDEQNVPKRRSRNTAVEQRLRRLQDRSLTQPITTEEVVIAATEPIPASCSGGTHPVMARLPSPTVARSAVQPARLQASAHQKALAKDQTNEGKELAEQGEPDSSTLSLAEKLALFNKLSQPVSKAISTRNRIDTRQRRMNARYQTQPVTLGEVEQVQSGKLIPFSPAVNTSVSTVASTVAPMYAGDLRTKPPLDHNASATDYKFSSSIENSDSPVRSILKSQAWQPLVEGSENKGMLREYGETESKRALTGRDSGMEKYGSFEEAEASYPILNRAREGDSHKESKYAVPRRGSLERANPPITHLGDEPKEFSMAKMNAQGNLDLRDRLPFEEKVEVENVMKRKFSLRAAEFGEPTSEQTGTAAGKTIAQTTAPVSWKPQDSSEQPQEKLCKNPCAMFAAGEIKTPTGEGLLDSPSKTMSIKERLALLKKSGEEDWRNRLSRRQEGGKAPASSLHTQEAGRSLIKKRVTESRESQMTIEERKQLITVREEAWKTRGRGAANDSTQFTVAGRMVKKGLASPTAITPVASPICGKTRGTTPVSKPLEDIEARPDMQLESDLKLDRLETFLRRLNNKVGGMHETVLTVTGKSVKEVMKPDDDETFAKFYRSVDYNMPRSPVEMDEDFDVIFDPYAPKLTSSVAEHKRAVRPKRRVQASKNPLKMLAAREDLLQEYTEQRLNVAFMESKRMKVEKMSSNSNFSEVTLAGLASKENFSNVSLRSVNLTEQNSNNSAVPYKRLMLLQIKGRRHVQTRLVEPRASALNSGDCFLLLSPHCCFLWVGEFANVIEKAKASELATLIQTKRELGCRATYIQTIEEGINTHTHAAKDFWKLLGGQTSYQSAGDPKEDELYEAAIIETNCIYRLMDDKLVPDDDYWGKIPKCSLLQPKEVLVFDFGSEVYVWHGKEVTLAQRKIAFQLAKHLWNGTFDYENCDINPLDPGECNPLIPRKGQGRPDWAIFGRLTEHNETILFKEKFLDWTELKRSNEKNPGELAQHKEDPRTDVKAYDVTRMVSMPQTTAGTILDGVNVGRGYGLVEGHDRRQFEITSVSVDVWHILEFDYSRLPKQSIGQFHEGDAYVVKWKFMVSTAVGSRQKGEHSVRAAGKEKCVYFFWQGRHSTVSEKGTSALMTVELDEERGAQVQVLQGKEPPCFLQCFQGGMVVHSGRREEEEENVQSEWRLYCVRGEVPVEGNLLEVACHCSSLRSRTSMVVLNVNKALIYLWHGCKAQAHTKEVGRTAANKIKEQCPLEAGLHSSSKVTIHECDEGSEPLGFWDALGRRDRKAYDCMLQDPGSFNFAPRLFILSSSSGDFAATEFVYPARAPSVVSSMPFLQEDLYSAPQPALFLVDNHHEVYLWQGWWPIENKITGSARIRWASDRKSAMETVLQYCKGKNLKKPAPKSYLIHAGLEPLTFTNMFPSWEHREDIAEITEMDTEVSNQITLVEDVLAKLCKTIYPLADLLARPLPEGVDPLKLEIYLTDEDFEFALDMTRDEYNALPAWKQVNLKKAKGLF
UniProt O60232: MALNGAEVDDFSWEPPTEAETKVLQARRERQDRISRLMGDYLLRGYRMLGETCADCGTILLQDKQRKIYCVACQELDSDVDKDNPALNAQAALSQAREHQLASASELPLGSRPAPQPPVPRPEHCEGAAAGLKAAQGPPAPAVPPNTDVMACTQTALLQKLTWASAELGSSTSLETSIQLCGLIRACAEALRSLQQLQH
UniProt O15260: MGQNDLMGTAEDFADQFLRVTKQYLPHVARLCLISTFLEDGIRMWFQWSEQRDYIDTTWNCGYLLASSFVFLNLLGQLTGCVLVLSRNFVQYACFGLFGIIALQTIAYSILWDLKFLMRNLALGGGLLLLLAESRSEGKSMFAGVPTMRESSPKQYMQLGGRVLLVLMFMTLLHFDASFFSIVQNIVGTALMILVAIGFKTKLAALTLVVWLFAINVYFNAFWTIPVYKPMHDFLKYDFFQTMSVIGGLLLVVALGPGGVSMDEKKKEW
UniProt Q15831: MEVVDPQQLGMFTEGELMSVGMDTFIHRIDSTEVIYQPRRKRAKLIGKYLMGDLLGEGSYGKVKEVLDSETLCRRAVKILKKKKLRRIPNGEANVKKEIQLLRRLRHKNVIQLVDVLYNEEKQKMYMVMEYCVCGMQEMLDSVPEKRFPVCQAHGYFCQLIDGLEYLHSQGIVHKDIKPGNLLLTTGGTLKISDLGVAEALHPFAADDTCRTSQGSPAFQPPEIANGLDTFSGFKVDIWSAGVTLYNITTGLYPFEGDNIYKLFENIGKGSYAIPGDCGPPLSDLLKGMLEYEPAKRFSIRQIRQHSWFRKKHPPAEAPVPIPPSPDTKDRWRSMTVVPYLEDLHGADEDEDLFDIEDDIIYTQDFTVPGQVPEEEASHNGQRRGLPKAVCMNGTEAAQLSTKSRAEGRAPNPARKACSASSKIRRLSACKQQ
UniProt O95210: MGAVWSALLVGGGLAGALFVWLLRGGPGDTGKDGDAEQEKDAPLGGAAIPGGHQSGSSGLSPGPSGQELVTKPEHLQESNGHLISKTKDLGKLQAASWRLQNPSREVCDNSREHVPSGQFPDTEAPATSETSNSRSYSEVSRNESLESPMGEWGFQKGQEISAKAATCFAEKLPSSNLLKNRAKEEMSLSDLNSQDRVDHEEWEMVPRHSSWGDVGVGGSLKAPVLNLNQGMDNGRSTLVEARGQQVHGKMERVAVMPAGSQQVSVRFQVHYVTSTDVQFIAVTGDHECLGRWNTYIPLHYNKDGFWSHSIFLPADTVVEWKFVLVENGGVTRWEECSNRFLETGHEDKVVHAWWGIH
UniProt Q8N1F8: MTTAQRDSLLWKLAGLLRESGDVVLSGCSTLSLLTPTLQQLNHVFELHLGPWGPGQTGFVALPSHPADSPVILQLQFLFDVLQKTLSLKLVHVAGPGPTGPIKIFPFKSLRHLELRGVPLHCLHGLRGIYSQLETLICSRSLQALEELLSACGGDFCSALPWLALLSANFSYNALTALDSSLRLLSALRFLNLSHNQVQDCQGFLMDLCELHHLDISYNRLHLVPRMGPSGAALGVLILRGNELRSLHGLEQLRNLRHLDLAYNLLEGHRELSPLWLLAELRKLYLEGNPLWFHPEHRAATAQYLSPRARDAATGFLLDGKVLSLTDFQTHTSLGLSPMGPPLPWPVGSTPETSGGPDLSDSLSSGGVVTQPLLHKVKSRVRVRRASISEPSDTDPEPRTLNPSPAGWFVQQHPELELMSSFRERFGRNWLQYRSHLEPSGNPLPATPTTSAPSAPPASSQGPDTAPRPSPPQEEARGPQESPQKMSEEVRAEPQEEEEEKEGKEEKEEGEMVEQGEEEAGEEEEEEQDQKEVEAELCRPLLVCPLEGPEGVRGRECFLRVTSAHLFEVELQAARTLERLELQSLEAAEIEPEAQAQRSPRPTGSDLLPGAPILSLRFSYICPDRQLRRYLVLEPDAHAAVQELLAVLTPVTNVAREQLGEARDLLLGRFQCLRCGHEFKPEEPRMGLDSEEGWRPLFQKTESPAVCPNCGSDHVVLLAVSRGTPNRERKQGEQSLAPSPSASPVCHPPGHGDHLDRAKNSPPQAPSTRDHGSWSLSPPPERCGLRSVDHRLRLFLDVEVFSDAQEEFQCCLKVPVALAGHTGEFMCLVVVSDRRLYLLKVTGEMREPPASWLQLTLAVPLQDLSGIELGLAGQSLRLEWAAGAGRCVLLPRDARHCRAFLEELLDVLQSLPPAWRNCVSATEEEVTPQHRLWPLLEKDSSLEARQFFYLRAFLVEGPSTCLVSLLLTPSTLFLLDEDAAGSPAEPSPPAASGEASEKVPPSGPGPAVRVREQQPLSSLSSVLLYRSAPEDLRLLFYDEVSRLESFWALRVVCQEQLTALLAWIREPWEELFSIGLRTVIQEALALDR
UniProt P31948, whole entry, looked up: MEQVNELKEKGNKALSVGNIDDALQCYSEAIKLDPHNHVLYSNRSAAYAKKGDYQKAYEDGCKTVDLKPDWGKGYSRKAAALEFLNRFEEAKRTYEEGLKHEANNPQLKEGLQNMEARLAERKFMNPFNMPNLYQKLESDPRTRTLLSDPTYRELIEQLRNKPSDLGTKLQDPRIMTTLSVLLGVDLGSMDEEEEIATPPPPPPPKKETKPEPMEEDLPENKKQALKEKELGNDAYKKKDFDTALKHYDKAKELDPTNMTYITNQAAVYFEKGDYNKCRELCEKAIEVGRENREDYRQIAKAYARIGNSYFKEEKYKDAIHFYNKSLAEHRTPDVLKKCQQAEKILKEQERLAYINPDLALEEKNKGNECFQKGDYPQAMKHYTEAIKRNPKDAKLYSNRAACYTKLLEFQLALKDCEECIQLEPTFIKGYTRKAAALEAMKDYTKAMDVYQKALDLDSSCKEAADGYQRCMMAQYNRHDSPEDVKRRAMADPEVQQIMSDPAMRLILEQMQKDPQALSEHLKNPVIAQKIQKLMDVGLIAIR
UniProt Q8IYB8: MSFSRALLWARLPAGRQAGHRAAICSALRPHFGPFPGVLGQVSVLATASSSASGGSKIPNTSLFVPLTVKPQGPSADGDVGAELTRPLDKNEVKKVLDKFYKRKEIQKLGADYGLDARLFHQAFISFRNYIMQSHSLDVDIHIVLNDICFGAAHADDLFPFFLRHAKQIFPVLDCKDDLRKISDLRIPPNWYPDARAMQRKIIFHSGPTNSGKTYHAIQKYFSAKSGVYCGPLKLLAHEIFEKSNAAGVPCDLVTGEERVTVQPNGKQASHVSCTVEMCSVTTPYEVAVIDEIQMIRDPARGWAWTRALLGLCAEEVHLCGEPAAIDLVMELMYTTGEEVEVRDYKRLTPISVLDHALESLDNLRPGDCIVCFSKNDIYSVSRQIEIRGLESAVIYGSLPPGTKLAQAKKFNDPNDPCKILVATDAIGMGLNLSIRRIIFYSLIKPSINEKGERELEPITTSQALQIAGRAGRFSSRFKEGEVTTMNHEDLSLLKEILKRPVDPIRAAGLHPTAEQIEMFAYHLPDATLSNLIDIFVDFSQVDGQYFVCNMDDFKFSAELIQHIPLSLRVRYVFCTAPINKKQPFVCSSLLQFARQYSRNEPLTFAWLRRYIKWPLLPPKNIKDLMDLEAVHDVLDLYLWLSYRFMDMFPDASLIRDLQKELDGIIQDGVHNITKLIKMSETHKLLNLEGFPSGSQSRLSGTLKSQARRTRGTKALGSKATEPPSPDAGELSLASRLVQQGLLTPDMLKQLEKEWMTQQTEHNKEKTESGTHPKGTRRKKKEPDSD
UniProt Q9NSY2, whole entry: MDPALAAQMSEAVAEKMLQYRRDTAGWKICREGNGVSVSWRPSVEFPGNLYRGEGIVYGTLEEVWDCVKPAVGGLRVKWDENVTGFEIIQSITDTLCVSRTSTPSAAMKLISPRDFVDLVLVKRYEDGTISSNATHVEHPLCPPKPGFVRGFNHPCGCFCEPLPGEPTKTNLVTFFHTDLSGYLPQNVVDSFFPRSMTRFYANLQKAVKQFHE

Compared with “SSB_P05455_18_ICHQIEYYFGDFNLPR (UniProt P05455)”, “SSRP1_Q08945_340_ITVPGNFQGHSGAQCITCSYK (UniProt Q08945)” is higher in “probe-labelled cysteine peptide fold change” value: 0.0242 for the first, 0.0901 for the second.

Going from “SWAP70_Q9UH65_273_CLFLVK (UniProt Q9UH65)” to “SVIL_O95425_1966_VTIHECDEGSEPLGFWDALGR (UniProt O95425)”, the “probe-labelled cysteine peptide fold change” value falls from -0.0562 to -0.0832.

First: STK32C_Q86UX6_379_LHCDPTFELEEMILESRPLHK (UniProt Q86UX6)
Second: SSSCA1_O60232_73_IYCVACQELDSDVDK (UniProt O60232)
The “probe-labelled cysteine peptide fold change” value of the first is lower: -0.136 for the first, -0.0172 for the second.

First: STT3B_Q8TCJ2_715_AGSPTLLNCLMYK (UniProt Q8TCJ2)
Second: SURF4_O15260_32_LCLISTFLEDGIR (UniProt O15260)
The “probe-labelled cysteine peptide fold change” value of the first is lower: 0.0595 for the first, 0.222 for the second.

Compared with “STT3B_Q8TCJ2_40_HGHHGPGAQCAHK (UniProt Q8TCJ2)”, “STK11_Q15831_418_ACSASSK (UniProt Q15831)” is lower in “probe-labelled cysteine peptide fold change” value: -0.253 for the first, -0.73 for the second.

First: STK39_Q9UEW8_450_EASSCAVNLVLR (UniProt Q9UEW8)
Second: STBD1_O95210_337_WEECSNR (UniProt O95210)
The “probe-labelled cysteine peptide fold change” value of the first is lower: -0.028 for the first, 0.153 for the second.

First: STK11IP_Q8N1F8_707+710_TESPAVCPNCGSDHVVLLAVSR (UniProt Q8N1F8)
Second: ST14_Q9Y5Y6_550_SQQCNGKDDCGDGSDEASCPK (UniProt Q9Y5Y6)
The “probe-labelled cysteine peptide fold change” value of the first is lower: 0.0186 for the first, 0.0415 for the second.

Going from “STIP1_P31948_417_DCEECIQLEPTFIK (UniProt P31948)” to “SUPV3L1_Q8IYB8_175_QIFPVLDCKDDLRK (UniProt Q8IYB8)”, the “probe-labelled cysteine peptide fold change” value falls from 0.327 to -0.13.

Going from “STK16_O75716_174_DLKPTNILLGDEGQPVLMDLGSMNQACIHVEGSR (UniProt O75716)” to “STRADA_Q7RTN6_107_INLEACSNEMVTFLQGELHVSK (UniProt Q7RTN6)”, the “probe-labelled cysteine peptide fold change” value rises from -0.00387 to 0.391.

same assay, conditions: 50 µM; THP-1; incubation time: 4 h

First: SWAP70_Q9UH65_260_GDILLDENCCVESLPDK (UniProt Q9UH65)
Second: SRRT_Q9BXP5_412_DAAGLECK (UniProt Q9BXP5)
The “probe-labelled cysteine peptide fold change” value of the first is lower: 0.17 for the first, 0.224 for the second.

Compared with “STAU2_Q9NUL3_11_TAMCLVNELAR (UniProt Q9NUL3)”, “STRN_O43815_740_TCIQEFTAHR (UniProt O43815)” is higher in “probe-labelled cysteine peptide fold change” value: -0.03 for the first, 0.00131 for the second.

Going from “SUPT6H_Q7KZ85_1021_TQLVTMCHMGPK (UniProt Q7KZ85)” to “STAM2_O75886_85_IFHLEVCSR (UniProt O75886)”, the “probe-labelled cysteine peptide fold change” value rises from 0.105 to 0.212.

First: SSRP1_Q08945_139_FGGQLLSFDIGDQPVFEIPLSNVSQCTTGK (UniProt Q08945)
Second: SRSF3_P84103_6_DSCPLDCK (UniProt P84103)
The “probe-labelled cysteine peptide fold change” value of the first is higher: 0.479 for the first, -0.594 for the second.

First: SUPV3L1_Q8IYB8_251_SNAAGVPCDLVTGEER (UniProt Q8IYB8)
Second: STEAP3_Q658P3_168_QVPICGDQPEAK (UniProt Q658P3)
The “probe-labelled cysteine peptide fold change” value of the first is higher: 0.0989 for the first, -0.0131 for the second.

Compared with “STAT3_P40763_108_CLWEESR (UniProt P40763)”, “SUPT5H_O00267_740_VELHSTCQTISVDR (UniProt O00267)” is lower in “probe-labelled cysteine peptide fold change” value: -0.0138 for the first, -0.0519 for the second.

Compared with “STIP1_P31948_461_ALDLDSSCK (UniProt P31948)”, “STARD5_Q9NSY2_67_GEGIVYGTLEEVWDCVK (UniProt Q9NSY2)” is higher in “probe-labelled cysteine peptide fold change” value: -0.0725 for the first, 0.0149 for the second.

First: STARD3_Q14849_317_TVTACQILQR (UniProt Q14849)
Second: STRAP_Q9Y3F4_305_CVLPEEDSGELAK (UniProt Q9Y3F4)
The “probe-labelled cysteine peptide fold change” value of the first is lower: -0.0212 for the first, 0.318 for the second.

First: SUGP2_Q8IX01_970_VCLIQEPK (UniProt Q8IX01)
Second: SSB_P05455_18_ICHQIEYYFGDFNLPR (UniProt P05455)
The “probe-labelled cysteine peptide fold change” value of the first is lower: 0.112 for the first, 0.122 for the second.

Going from “SSRP1_Q08945_340_ITVPGNFQGHSGAQCITCSYK (UniProt Q08945)” to “SWAP70_Q9UH65_273_CLFLVK (UniProt Q9UH65)”, the “probe-labelled cysteine peptide fold change” value falls from 0.293 to -0.234.

Compared with “SVIL_O95425_1966_VTIHECDEGSEPLGFWDALGR (UniProt O95425)”, “STK32C_Q86UX6_379_LHCDPTFELEEMILESRPLHK (UniProt Q86UX6)” is lower in “probe-labelled cysteine peptide fold change” value: 0.0363 for the first, -0.226 for the second.

Going from “SSSCA1_O60232_73_IYCVACQELDSDVDK (UniProt O60232)” to “STT3B_Q8TCJ2_715_AGSPTLLNCLMYK (UniProt Q8TCJ2)”, the “probe-labelled cysteine peptide fold change” value falls from 0.273 to 0.172.

First: SURF4_O15260_32_LCLISTFLEDGIR (UniProt O15260)
Second: STT3B_Q8TCJ2_40_HGHHGPGAQCAHK (UniProt Q8TCJ2)
The “probe-labelled cysteine peptide fold change” value of the first is higher: 0.533 for the first, -1 for the second.

Compared with “STK11_Q15831_418_ACSASSK (UniProt Q15831)”, “STK39_Q9UEW8_450_EASSCAVNLVLR (UniProt Q9UEW8)” is higher in “probe-labelled cysteine peptide fold change” value: -1.42 for the first, 0.0278 for the second.

First: STBD1_O95210_337_WEECSNR (UniProt O95210)
Second: STK11IP_Q8N1F8_707+710_TESPAVCPNCGSDHVVLLAVSR (UniProt Q8N1F8)
The “probe-labelled cysteine peptide fold change” value of the first is higher: 0.353 for the first, 0.166 for the second.

Going from “ST14_Q9Y5Y6_550_SQQCNGKDDCGDGSDEASCPK (UniProt Q9Y5Y6)” to “STIP1_P31948_417_DCEECIQLEPTFIK (UniProt P31948)”, the “probe-labelled cysteine peptide fold change” value rises from -0.658 to -0.028.

Compared with “SUPV3L1_Q8IYB8_175_QIFPVLDCKDDLRK (UniProt Q8IYB8)”, “STK16_O75716_174_DLKPTNILLGDEGQPVLMDLGSMNQACIHVEGSR (UniProt O75716)” is higher in “probe-labelled cysteine peptide fold change” value: -0.467 for the first, -0.0622 for the second.

In the case of “STRADA_Q7RTN6_107_INLEACSNEMVTFLQGELHVSK (UniProt Q7RTN6)”, the “probe-labelled cysteine peptide fold change” value is reported as 0.345.

— the supplement of paper PMC12067093, “Discovery and optimisation of a covalent ligand for TRIM25 and its application to targeted protein ubiquitination” (Chemical Science, 2025)
